{"source": "the supplement of paper PMC10735217", "test_system": "HEK293A TEAD-LUC reporter", "test": "TEAD-luciferase reporter activity (YAP activation), robust Z score vs plate; higher = stronger YAP/TEAD activation", "conditions": "24 h", "note": "Where a name gives a salt, the structure may show the parent alone. This is one part of the list. This data set is noisy: repeats of one test often differ as much as different tests do.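 The human kidney-derived cells carry a stably integrated construct of eight TEAD-binding elements driving luciferase, read by luminescence in a drug-repurposing library screen. A compound counts as a hit when its signal is more than five robust Z scores above the plate mean.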"}
{"smiles": "CC(O)CNC(=O)c1ccccc1SSc1ccccc1C(=O)NCC(C)O", "note": "(configuration not stated)", "values": [{"measurement": "TEAD-luciferase reporter activity", "setting": "compound concentration: 200 nM", "value": "inactive: -1.71"}, {"measurement": "TEAD-luciferase reporter activity", "setting": "compound concentration: 2 uM", "value": "inactive: -0.937"}, {"measurement": "TEAD-luciferase reporter activity", "setting": "compound concentration: 10 uM", "value": "inactive: 1.32"}]}
{"smiles": "CCC1(c2ccccc2)C(=O)NCNC1=O", "values": [{"measurement": "TEAD-luciferase reporter activity", "setting": "compound concentration: 200 nM", "value": "inactive: -0.12"}, {"measurement": "TEAD-luciferase reporter activity", "setting": "compound concentration: 10 uM", "value": "inactive: -1.26"}]}
{"smiles": "CCC1(c2ccccc2)C(=O)NCNC1=O", "note": "[primidone]", "values": [{"measurement": "TEAD-luciferase reporter activity", "setting": "compound concentration: 2 uM", "value": "inactive: -1.11"}]}
{"smiles": "CC(=O)OC1CC(C)(C)N(O)C(C)(C)C1", "values": [{"measurement": "TEAD-luciferase reporter activity", "setting": "compound concentration: 200 nM", "value": "inactive: -0.0157"}, {"measurement": "TEAD-luciferase reporter activity", "setting": "compound concentration: 2 uM", "value": "inactive: -0.179"}, {"measurement": "TEAD-luciferase reporter activity", "setting": "compound concentration: 10 uM", "value": "inactive: 0.246"}]}
{"smiles": "COCC(O)Cn1c(=O)cnn(-c2ccc(Cl)c(C(=O)NCC3(O)CCCCCC3)c2)c1=O", "note": "(configuration not stated)", "values": [{"measurement": "TEAD-luciferase reporter activity", "setting": "compound concentration: 200 nM", "value": "inactive: -1.29"}, {"measurement": "TEAD-luciferase reporter activity", "setting": "compound concentration: 2 uM", "value": "inactive: -0.947"}, {"measurement": "TEAD-luciferase reporter activity", "setting": "compound concentration: 10 uM", "value": "inactive: 1.65"}]}
{"smiles": "Cn1cc(C2=C(c3cn(C)c4cc([N+](=O)[O-])ccc34)C(=O)NC2=O)c2ccccc21", "values": [{"measurement": "TEAD-luciferase reporter activity", "setting": "compound concentration: 200 nM", "value": "inactive: -1.42"}, {"measurement": "TEAD-luciferase reporter activity", "setting": "compound concentration: 2 uM", "value": "inactive: -1.92"}, {"measurement": "TEAD-luciferase reporter activity", "setting": "compound concentration: 10 uM", "value": "inactive: 0.764"}]}
{"smiles": "CCCCCCOc1nsnc1C1=CCCN(C)C1", "note": "[Xanomeline]", "values": [{"measurement": "TEAD-luciferase reporter activity", "setting": "compound concentration: 200 nM", "value": "inactive: 1.72"}, {"measurement": "TEAD-luciferase reporter activity", "setting": "compound concentration: 2 uM", "value": "inactive: 0.0365"}, {"measurement": "TEAD-luciferase reporter activity", "setting": "compound concentration: 10 uM", "value": "inactive: -1.68"}]}
{"smiles": "CNCc1ccc(-c2cc(-c3nc(-c4ccc(S(=O)(=O)C(C)C)cc4)cnc3N)on2)cc1", "values": [{"measurement": "TEAD-luciferase reporter activity", "setting": "compound concentration: 200 nM", "value": "inactive: 0.729"}, {"measurement": "TEAD-luciferase reporter activity", "setting": "compound concentration: 2 uM", "value": "inactive: -0.699"}, {"measurement": "TEAD-luciferase reporter activity", "setting": "compound concentration: 10 uM", "value": "inactive: -0.499"}]}
{"smiles": "Cc1c(C(=O)Nc2ccc(Oc3ccnc4cc(OCC(C)(C)O)ccc34)c(F)c2)c(=O)n(-c2ccccc2)n1C", "note": "[Ningetinib Tosylate]", "values": [{"measurement": "TEAD-luciferase reporter activity", "setting": "compound concentration: 200 nM", "value": "inactive: 1.03"}, {"measurement": "TEAD-luciferase reporter activity", "setting": "compound concentration: 2 uM", "value": "inactive: -0.701"}, {"measurement": "TEAD-luciferase reporter activity", "setting": "compound concentration: 10 uM", "value": "inactive: -1.49"}]}
{"smiles": "CCn1cc(C(=O)O)c(=O)c2cc(F)c(N3CCN(C)CC3)cc21", "values": [{"measurement": "TEAD-luciferase reporter activity", "setting": "compound concentration: 200 nM", "value": "inactive: 1.41"}, {"measurement": "TEAD-luciferase reporter activity", "setting": "compound concentration: 10 uM", "value": "inactive: 0.357"}]}
{"smiles": "CCn1cc(C(=O)O)c(=O)c2cc(F)c(N3CCN(C)CC3)cc21", "note": "[Pefloxacin]", "values": [{"measurement": "TEAD-luciferase reporter activity", "setting": "compound concentration: 2 uM", "value": "inactive: 0.727"}]}
{"smiles": "CN(C)CC(CN(C)C)OC(=O)COc1ccc(Cl)cc1", "values": [{"measurement": "TEAD-luciferase reporter activity", "setting": "compound concentration: 200 nM", "value": "inactive: 1.36"}, {"measurement": "TEAD-luciferase reporter activity", "setting": "compound concentration: 2 uM", "value": "inactive: -0.904"}, {"measurement": "TEAD-luciferase reporter activity", "setting": "compound concentration: 10 uM", "value": "inactive: 2.21"}]}
{"smiles": "O=C(O)c1cc2cc(O)c(O)cc2c(C(=O)c2ccc(O)c(O)c2)n1", "values": [{"measurement": "TEAD-luciferase reporter activity", "setting": "compound concentration: 200 nM", "value": "inactive: -1.31"}, {"measurement": "TEAD-luciferase reporter activity", "setting": "compound concentration: 2 uM", "value": "inactive: -1.73"}, {"measurement": "TEAD-luciferase reporter activity", "setting": "compound concentration: 10 uM", "value": "active: 5.35"}]}
{"smiles": "Oc1ccc(C2CNCCc3c2cc(O)c(O)c3Cl)cc1", "note": "(configuration not stated) [Fenoldopam mesilate]", "values": [{"measurement": "TEAD-luciferase reporter activity", "setting": "compound concentration: 2 uM", "value": "inactive: -0.0233"}]}
{"smiles": "Oc1ccc(C2CNCCc3c2cc(O)c(O)c3Cl)cc1", "note": "(configuration not stated)", "values": [{"measurement": "TEAD-luciferase reporter activity", "setting": "compound concentration: 200 nM", "value": "inactive: 1.88"}, {"measurement": "TEAD-luciferase reporter activity", "setting": "compound concentration: 10 uM", "value": "inactive: 1.31"}]}
{"smiles": "[Cl][Mn][Cl]", "note": "[Manganese chloride]", "values": [{"measurement": "TEAD-luciferase reporter activity", "setting": "compound concentration: 200 nM", "value": "inactive: -0.0418"}, {"measurement": "TEAD-luciferase reporter activity", "setting": "compound concentration: 2 uM", "value": "inactive: 0.9"}, {"measurement": "TEAD-luciferase reporter activity", "setting": "compound concentration: 10 uM", "value": "inactive: -1.59"}]}
{"smiles": "CN(C)C(=O)NC1CCN(c2nc3ncccc3o2)C1", "note": "(configuration not stated)", "values": [{"measurement": "TEAD-luciferase reporter activity", "setting": "compound concentration: 200 nM", "value": "inactive: 0.0339"}, {"measurement": "TEAD-luciferase reporter activity", "setting": "compound concentration: 10 uM", "value": "inactive: 0.68"}]}
{"smiles": "Cc1cccc(CN2CCCC23Cc2ccccc2CNC3=O)c1", "note": "(configuration not stated)", "values": [{"measurement": "TEAD-luciferase reporter activity", "setting": "compound concentration: 200 nM", "value": "inactive: -1.43"}, {"measurement": "TEAD-luciferase reporter activity", "setting": "compound concentration: 10 uM", "value": "inactive: -0.159"}]}
{"smiles": "O=C(O)CNC(=O)[C@@H](CS)Cc1ccc2c(c1)OCO2", "values": [{"measurement": "TEAD-luciferase reporter activity", "setting": "compound concentration: 200 nM", "value": "inactive: -0.512"}, {"measurement": "TEAD-luciferase reporter activity", "setting": "compound concentration: 2 uM", "value": "inactive: 0.364"}, {"measurement": "TEAD-luciferase reporter activity", "setting": "compound concentration: 10 uM", "value": "inactive: -1.4"}]}
{"smiles": "O=C(CCCN1CCC(C(=O)c2ccc(Cl)cc2)CC1)c1ccc(F)cc1", "values": [{"measurement": "TEAD-luciferase reporter activity", "setting": "compound concentration: 200 nM", "value": "inactive: 4.29"}, {"measurement": "TEAD-luciferase reporter activity", "setting": "compound concentration: 2 uM", "value": "inactive: -0.658"}, {"measurement": "TEAD-luciferase reporter activity", "setting": "compound concentration: 10 uM", "value": "inactive: 0.33"}]}
{"smiles": "C=C1CC[C@H](O)C/C1=C/C=C1\\CCC[C@]2(C)[C@@H]([C@H](C)CCCC(C)(C)O)CC[C@@H]12", "note": "[Calcifediol (monohydrate)]", "values": [{"measurement": "TEAD-luciferase reporter activity", "setting": "compound concentration: 2 uM", "value": "inactive: 0.825"}]}
{"smiles": "C=C1CC[C@H](O)C/C1=C/C=C1\\CCC[C@]2(C)[C@@H]([C@H](C)CCCC(C)(C)O)CC[C@@H]12", "note": "[Calcifediol]", "values": [{"measurement": "TEAD-luciferase reporter activity", "setting": "compound concentration: 200 nM", "value": "inactive: -1.16"}, {"measurement": "TEAD-luciferase reporter activity", "setting": "compound concentration: 10 uM", "value": "inactive: 3.04"}]}
{"smiles": "CCN(CC)C(=O)Cc1csc(NS(=O)(=O)c2cccc(Cl)c2C)n1", "values": [{"measurement": "TEAD-luciferase reporter activity", "setting": "compound concentration: 200 nM", "value": "inactive: -1.6"}, {"measurement": "TEAD-luciferase reporter activity", "setting": "compound concentration: 2 uM", "value": "inactive: -2.33"}, {"measurement": "TEAD-luciferase reporter activity", "setting": "compound concentration: 10 uM", "value": "inactive: 4.79"}]}
{"smiles": "Oc1ccc2ccccc2c1Cc1c(O)ccc2ccccc12", "values": [{"measurement": "TEAD-luciferase reporter activity", "setting": "compound concentration: 200 nM", "value": "inactive: -0.0857"}, {"measurement": "TEAD-luciferase reporter activity", "setting": "compound concentration: 2 uM", "value": "inactive: -0.238"}, {"measurement": "TEAD-luciferase reporter activity", "setting": "compound concentration: 10 uM", "value": "inactive: 2.47"}]}
{"smiles": "CC(C)(N)C(=O)N[C@H](CCCc1ccccc1)C(=O)N1CCC(c2ccccc2CCc2nnn[nH]2)CC1", "values": [{"measurement": "TEAD-luciferase reporter activity", "setting": "compound concentration: 200 nM", "value": "inactive: -1.51"}, {"measurement": "TEAD-luciferase reporter activity", "setting": "compound concentration: 2 uM", "value": "inactive: 0.387"}, {"measurement": "TEAD-luciferase reporter activity", "setting": "compound concentration: 10 uM", "value": "inactive: -0.175"}]}
{"smiles": "O=C(O)CCCC(=O)N1Cc2ccccc2CC2(CCCCN2CC2CCCC2)C1", "note": "(configuration not stated)", "values": [{"measurement": "TEAD-luciferase reporter activity", "setting": "compound concentration: 200 nM", "value": "inactive: 0.336"}, {"measurement": "TEAD-luciferase reporter activity", "setting": "compound concentration: 10 uM", "value": "inactive: -0.165"}]}
{"smiles": "COc1cc(CC2c3cc(OC)c(OC)cc3CCN2C)c(Oc2cc3c(cc2OC)-c2c(O)c(OC)cc4c2C(C3)N(C)CC4)cc1OC", "note": "(configuration not stated)", "values": [{"measurement": "TEAD-luciferase reporter activity", "setting": "compound concentration: 200 nM", "value": "inactive: -2.54"}, {"measurement": "TEAD-luciferase reporter activity", "setting": "compound concentration: 2 uM", "value": "inactive: -0.93"}, {"measurement": "TEAD-luciferase reporter activity", "setting": "compound concentration: 10 uM", "value": "inactive: 0.647"}]}
{"smiles": "N=C(N)NCCCC(N)C(=O)NCCCN1CCN(CCCNC(=O)C(N)CCCNC(=N)N)CC1", "note": "(configuration not stated) [Ciraparantag]", "values": [{"measurement": "TEAD-luciferase reporter activity", "setting": "compound concentration: 200 nM", "value": "inactive: 0.0529"}, {"measurement": "TEAD-luciferase reporter activity", "setting": "compound concentration: 2 uM", "value": "inactive: 0.515"}, {"measurement": "TEAD-luciferase reporter activity", "setting": "compound concentration: 10 uM", "value": "inactive: -0.22"}]}
{"smiles": "CN1CCOC(COc2cccc3c2N(C)CCC3)C1", "note": "(configuration not stated)", "values": [{"measurement": "TEAD-luciferase reporter activity", "setting": "compound concentration: 200 nM", "value": "inactive: -1.74"}, {"measurement": "TEAD-luciferase reporter activity", "setting": "compound concentration: 2 uM", "value": "inactive: -0.899"}, {"measurement": "TEAD-luciferase reporter activity", "setting": "compound concentration: 10 uM", "value": "inactive: 0.617"}]}
